Data as given in PubChem BioAssay AID652272 (Drosophila RNAi Screening Center, 2013)
In all, the deposit lists about 21,000 reagents; this is an unselected part of those with a known target gene and a result. Of all reagents, 503 (2.4%) are marked active. 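Raw plate light values, not normalised; calls rest on replicate z-scores that were not deposited; hits include reporter decreases as well as increases.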 Entries without a mark were called inactive. Not stated in the record: the amount of reagent, the time to read-out.

- Test: 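Genome-wide knock-down search for components of Hedgehog signalling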 (primary screen)
- Cell system: Drosophila clone 8 (Cl8) cells
- Reagent: long dsRNA against Drosophila genes
- Read-out: 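Plate reader light from a firefly reporter under a ptc promoter fragment that responds to Hedgehog, with Renilla light as transfection reference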
- Reading the numbers: firefly Hh reporter signal: higher = more ptc reporter light; Renilla reference signal: higher = more Renilla control light
- Active means: 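Hit when the z-score averaged over two replicates is under -2 or over +3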
- Meaning of the calls: active = hit: reporter lowered or raised; inactive = not a hit

The first 6 entries, to show the layout:
target gene | dsRNA | firefly Hh reporter signal, replicate 1 | firefly Hh reporter signal, replicate 2 | firefly Hh reporter signal, replicate 3 | Renilla reference signal, replicate 1 | Renilla reference signal, replicate 2
CG16741 | DRSC06622 | 94035 | 45159 | – | 2036 | 2573
CG3907 | DRSC04432 | 85061 | 66763 | – | 1661 | 5545
CG34309 | DRSC14838 | 1.28e5 | 82505 | – | 3572 | 1920
CG14830 | DRSC08876 | 1.59e5 | 2.32e5 | – | 4855 | 10742
CG34174 | DRSC00101 | 5.83e5 | 2.57e5 | – | 27067 | 9777
CG16888 | DRSC02541 | 1.09e5 | 54845 | – | 3110 | 5188

Main list, from the first entry:
target gene | dsRNA | firefly Hh reporter signal, replicate 1 | firefly Hh reporter signal, replicate 2 | firefly Hh reporter signal, replicate 3 | Renilla reference signal, replicate 1 | Renilla reference signal, replicate 2
CG16741 | DRSC06622 | 94035 | 45159 | – | 2036 | 2573
CG3907 | DRSC04432 | 85061 | 66763 | – | 1661 | 5545
CG34309 | DRSC14838 | 1.28e5 | 82505 | – | 3572 | 1920
CG14830 | DRSC08876 | 1.59e5 | 2.32e5 | – | 4855 | 10742
CG34174 | DRSC00101 | 5.83e5 | 2.57e5 | – | 27067 | 9777
CG16888 | DRSC02541 | 1.09e5 | 54845 | – | 3110 | 5188
CG13157 | DRSC06282 | 84759 | 49191 | – | 1914 | 3801
tutl | DRSC00441 | 1.16e5 | 41112 | – | 1361 | 4576
tutl | DRSC00442 | 78340 | 60296 | – | 1138 | 5632
tutl | DRSC00443 | 66352 | 35894 | – | 944 | 3188
Tdc1 | DRSC04942 | 1.42e5 | 3.28e5 | – | 3665 | 13885
NKCC | DRSC12140 | 1.53e5 | 80204 | – | 6053 | 3496
NKCC | DRSC12311 | 52323 | 1.02e5 | – | 2225 | 2868
PlexA | DRSC17220 | 83475 | 68889 | – | 1987 | 1894
CG14422 | DRSC17919 | 1.34e5 | 3.67e5 | – | 4727 | 14256
CG11504 | DRSC14318 | 90576 | 81410 | – | 2144 | 2435
Or98a | DRSC16774 | 83888 | 1.11e5 | – | 3536 | 3592
yip2 | DRSC03640 | 90645 | 45767 | – | 2395 | 4096
CG7222 | DRSC07019 | 1.36e5 | 80293 | – | 5521 | 2823
dnr1 | DRSC03948 | 1.37e5 | 4.31e5 | – | 10488 | 17510
dnr1 | DRSC04122 | 74432 | 47830 | – | 1540 | 5025
CG17328 | DRSC01927 | 1.17e5 | 7.84e5 | 93924 | 2880 | 43552
Pp4-19C | DRSC20559 | 51880 | 1.91e5 | – | 1098 | 6946
Pp4-19C | DRSC21251 | 65271 | 1.42e5 | – | 2517 | 4896
Grx3 | DRSC02966 | 1.26e5 | 62205 | – | 4925 | 2744
CG33679 | DRSC01436 | 1.37e5 | 2.44e5 | – | 3253 | 11836
loopin-1 | DRSC06888 | 85760 | 50608 | – | 4010 | 1989
Tsp42El | DRSC06186 | 98410 | 92144 | – | 3308 | 3084
ARY (retired record) | DRSC20867 | 6.92e5 | 2.47e5 | – | 42373 | 6584
CG34163 | DRSC01219 | 4.57e5 | 2.48e5 | – | 26024 | 10103
PEK | DRSC12361 | 1.55e5 | 1.32e5 | – | 5376 | 5320
glec | DRSC16958 | 8.12e5 | 1.58e5 | – | 44018 | 2220
Dnaaf3 | DRSC06684 | 99052 | 59079 | – | 2896 | 4292
Pvf3 | DRSC02284 | 1.65e5 | 66653 | – | 4011 | 6736
Pvf3 | DRSC02285 | 1.17e5 | 70833 | – | 3451 | 7210
Pvf3 | DRSC02286 | 1.01e5 | 56716 | – | 2282 | 4788
Pvf3 | DRSC02751 | 1.19e5 | 71959 | – | 2717 | 6433
CG34223 | DRSC05268 | 1.17e5 | 2.11e5 | – | 3306 | 8813
Cluap1 | DRSC20637 | 1.13e5 | 3.72e5 | – | 3894 | 15853
ClC-b | DRSC07220 | 72000 | 44021 | – | 1760 | 3360
brv2 | DRSC10226 | 1.34e5 | – | – | 1715 | 3409
Rsf1 | DRSC03423 | 1.05e5 | 60801 | – | 4160 | 6743
SmydA-5 | DRSC04867 | 75021 | 70035 | – | 1353 | 5190
AIMP3 | DRSC04500 | 70025 | 41792 | – | 1770 | 3941
CG5446 | DRSC02862 | 75456 | 35927 | – | 2214 | 3890
Snrk | DRSC07192 | 99779 | 62564 | – | 4567 | 2849
gcm2 | DRSC03538 | 82326 | 54240 | – | 2682 | 5106
ATPsynO | DRSC16780 | 1.41e5 | 1.05e5 | – | 5234 | 3900
CG11373 | DRSC12170 | 83622 | 1.18e5 | – | 3371 | 3344
qua | DRSC03598 | 1.11e5 | 52833 | – | 3220 | 5280
CG3955 | DRSC06859 | 91532 | 50609 | – | 4297 | 1891
CG18281 | DRSC11742 | 1.60e5 | 1.17e5 | – | 5939 | 4572
RhoGAP16F | DRSC20025 | 91472 | 63325 | – | 2038 | 1597
Pfdn6 | DRSC10915 | 1.42e5 | 1.52e5 | – | 5073 | 4260
CG5348 | DRSC06933 | 95812 | 50025 | – | 2755 | 3616
Naa60 | DRSC10301 | 31570 | 39814 | 52496 | 4092 | 3560
Cyp6a15Psi | DRSC07377 | 1.00e5 | 47046 | – | 2411 | 3921
